Test results: PMC7795528
These are yes or no findings as the source states them, for the method shown. In cells and extracts the contact can be indirect. Some entries that bind do so weakly or less than the wild type.

By UniProt entry, the sequences of proteins in these tests, tags left out. Where a name states a change or a piece, a line headed by the entry shows the natural chain unless it says otherwise. Residues count along the entry.
wild type RANKL (mRANKL-WT), recombinant GST fusion RANKL protein (O35235, residues 158-316): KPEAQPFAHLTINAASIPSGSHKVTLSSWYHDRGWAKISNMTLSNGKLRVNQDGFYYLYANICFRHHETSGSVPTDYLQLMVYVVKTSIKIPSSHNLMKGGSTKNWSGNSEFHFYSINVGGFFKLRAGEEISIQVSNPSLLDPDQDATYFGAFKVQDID

Experiments:
[1] = molecular target: T1, leucine-rich repeat-containing G-protein-coupled receptor 4 (LGR4) (mouse (endogenous in BMMs)) (UniProt A2ARI4); assay: co-IP; BMM cells incubated with 500 ng/mL of mRANKL-WT or mRANKL-MT3 at 37 °C for 45 min, lysed; whole cell lysates precipitated with antibodies to RANK or LGR4 and protein A Sepharose, 2 h at room temperature; western blot; only the binder purified
T1 sequence: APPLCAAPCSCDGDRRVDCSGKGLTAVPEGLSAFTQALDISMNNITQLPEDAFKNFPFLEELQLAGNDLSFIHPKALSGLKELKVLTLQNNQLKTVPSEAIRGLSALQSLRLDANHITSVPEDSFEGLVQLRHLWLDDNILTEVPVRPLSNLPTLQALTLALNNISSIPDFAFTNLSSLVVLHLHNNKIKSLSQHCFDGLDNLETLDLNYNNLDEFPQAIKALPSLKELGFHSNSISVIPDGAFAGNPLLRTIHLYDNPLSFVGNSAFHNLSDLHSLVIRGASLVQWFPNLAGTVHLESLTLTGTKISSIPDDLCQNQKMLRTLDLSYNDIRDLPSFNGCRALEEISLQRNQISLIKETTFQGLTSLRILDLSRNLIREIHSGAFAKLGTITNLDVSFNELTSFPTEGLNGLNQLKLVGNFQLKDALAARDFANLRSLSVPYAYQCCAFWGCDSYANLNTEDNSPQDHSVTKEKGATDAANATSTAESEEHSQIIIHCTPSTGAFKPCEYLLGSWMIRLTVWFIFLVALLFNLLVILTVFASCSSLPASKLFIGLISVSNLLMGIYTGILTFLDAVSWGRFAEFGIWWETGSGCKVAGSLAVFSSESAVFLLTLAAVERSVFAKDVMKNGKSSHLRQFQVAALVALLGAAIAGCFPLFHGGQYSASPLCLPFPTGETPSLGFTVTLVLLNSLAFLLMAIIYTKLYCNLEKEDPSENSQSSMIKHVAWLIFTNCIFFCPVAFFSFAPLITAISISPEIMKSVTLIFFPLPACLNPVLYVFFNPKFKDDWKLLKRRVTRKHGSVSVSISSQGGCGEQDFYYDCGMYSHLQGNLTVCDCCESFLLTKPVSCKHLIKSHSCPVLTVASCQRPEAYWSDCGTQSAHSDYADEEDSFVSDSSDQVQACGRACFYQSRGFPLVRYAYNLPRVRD

[2] = molecular target: T2, RANK (mouse (endogenous in BMMs)) (UniProt O35305); assay: as above
T2 sequence: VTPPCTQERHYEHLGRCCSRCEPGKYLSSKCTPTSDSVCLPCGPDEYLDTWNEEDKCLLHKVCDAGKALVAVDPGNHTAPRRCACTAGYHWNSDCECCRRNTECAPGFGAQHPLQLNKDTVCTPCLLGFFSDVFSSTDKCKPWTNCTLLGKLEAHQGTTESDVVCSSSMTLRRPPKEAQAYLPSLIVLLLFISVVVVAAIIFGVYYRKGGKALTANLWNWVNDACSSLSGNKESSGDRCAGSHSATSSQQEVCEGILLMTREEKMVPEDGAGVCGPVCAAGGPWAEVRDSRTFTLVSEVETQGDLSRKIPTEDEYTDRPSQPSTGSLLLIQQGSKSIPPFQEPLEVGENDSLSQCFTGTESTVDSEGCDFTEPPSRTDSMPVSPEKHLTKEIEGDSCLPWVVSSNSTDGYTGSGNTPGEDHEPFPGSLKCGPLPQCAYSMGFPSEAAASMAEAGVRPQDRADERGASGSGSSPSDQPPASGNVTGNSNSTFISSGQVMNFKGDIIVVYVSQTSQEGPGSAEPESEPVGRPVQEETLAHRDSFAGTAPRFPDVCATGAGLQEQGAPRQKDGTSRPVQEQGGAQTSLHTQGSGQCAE

Substance	binding [1]	binding [2]
mutant RANKL (mRANKL-MT), recombinant GST fusion RANKL protein with K180R, D189I, R190K, H223F, H224Y (from UniProt O35235 158-316) (ligand)	binds	
wild type RANKL (mRANKL-WT), recombinant GST fusion RANKL protein (from UniProt O35235 158-316) (ligand)	binds	binds
